Among all 340,000 compounds or so, about 4,500 (1.3%) were called active. The inconclusive results got no clear call from the source; some entries with a clear call stand among them for comparison. Calls follow the shape of the dose curve; as a rule, active = well fitted inhibition curve with a large enough effect; inconclusive = small, poorly fitted or top-dose-only effect, or another doubt; inactive = no such curve, though single readings can be large or run the other way. Potencies beside an inconclusive call are fits to weak or partial responses and may not hold up.
biological target: DNA polymerase beta (Homo sapiens) (UniProt P06746); experiment: qHTS Assay for Inhibitors of DNA Polymerase Beta; conditions: Pol beta primer extension/strand displacement, fluorescence kinetic; activity change, negative = inhibition: at 114 µM (top of the series)
Procedure, shortened: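 10 nM enzyme + cpd, 15 min RT; start with substrate 50 nM final; read 0 min and after 10 min RT. Corrected, normalized data; 4-parameter Hill curve fit.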
% is scaled to controls: 0 for no effect and ±100 for the full control effect; potency is read from the fitted curve at half-maximal effect.

Compound | Potency | activity change, negative = inhibition
N#Cc1c(NC(=O)/C=C/c2ccco2)sc2c1CCCC2 | inconclusive: 22.4 µM [inhibitor, full curve] | –
CNS(=O)(=O)c1cn(CC(=O)Nc2ccc(OC)c(Cl)c2)cc1S(=O)(=O)NC | – | inactive: 20.2%
O=C1CC(=C(c2ccccc2)c2ccccc2)C(=O)N1CCCCN1CCN(c2ccccc2)CC1 | – | inactive: 4.29%
Fc1ccccc1-c1nc(NCc2ccccc2)c2ccccc2n1 | inconclusive: 63.1 µM [inhibitor, single point] | –
CC(CNC(=O)Cn1ncc2c3ccccc3n(Cc3cccc(Cl)c3)c2c1=O)c1ccccc1 (stereo not given) | inconclusive: 15.8 µM [inhibitor, full curve] | –
O=C(CCNC(=O)C1CCN(S(=O)(=O)c2ccccc2)CC1)NCc1cccc(C(F)(F)F)c1 | – | inconclusive: -35.2% [inhibitor]
C[N+](C)(C)C(Cc1ccccc1)C(=O)[O-] (stereo not given) | inconclusive: 35.5 µM [inhibitor, single point] | –
COc1ccc(OC)c(C2CC(=O)N(c3cccc(C)c3)C3=C2C(=O)OC3)c1 (stereo not given) | – | inactive: -24.2%
O=C(c1ccco1)N1CCN(c2ncnc3sc4c(c23)CCC4)CC1 | inconclusive: 89.1 µM [inhibitor, single point] | –
CCOC(=O)Nc1ccc2c(c1)N(C(=O)CN(CC)CC)c1ccccc1C=C2 | inconclusive: 89.1 µM [inhibitor, single point] | –
CCN1C(=O)/C(=C2\C=Cc3ccccc3N2CC)SC1=S | – | inactive: 6.73%
COc1cccc(/C=N/Nc2nc(Nc3ccc([N+](=O)[O-])cc3)nc(N3CCCC3)n2)c1O | inconclusive: 11.2 µM [inhibitor, full curve] | –
COc1ccc(CCN(C)C2CCCN(C(=O)c3sccc3C)C2)cc1OC (stereo not given) | – | inactive: 32.8%
Cc1ccc(-c2cc(-c3ccc(Cl)cc3)c(C#N)c(N)n2)o1 | – | inactive: 0.221%
Cc1ccc(NC(c2ccccc2)c2nc3ccccc3[nH]c2=O)cc1 (stereo not given) | inconclusive: 44.7 µM [inhibitor, partial curve, poor fit] | –
Cc1cc(/C=C(\C#N)C(=O)O)c(C)n1CC1CCCO1 (stereo not given) | – | inactive: -9.47%
COc1ccc(-c2nnc(Nc3ccc(OCC(N)=O)cc3)c3ccccc23)cc1 | – | inconclusive: -56.4% [inhibitor]
O=C(CSc1nc(=O)[nH]c2c1CCCC2)Nc1cc(C(F)(F)F)ccc1Cl | – | inactive: 14%
COCC(C)n1c(SCc2ccc(C(=O)OC)o2)nc2ccccc2c1=O (stereo not given) | inconclusive: 89.1 µM [inhibitor, single point] | –
C/C(O)=c1/ccc2cccc3nc(C)nc1c23 | inconclusive: 10 µM [inhibitor, full curve, poor fit] | –
COc1ccc(C2C(C(=O)Nc3ccccc3)=C(C)Nc3nc(-c4ccccc4)nn32)cc1OC (stereo not given) | inconclusive: 50.1 µM [inhibitor, partial curve] | –
Cc1c2cnn(CC(=O)Nc3c(F)c(F)cc(F)c3F)c(=O)c2c(C)n1Cc1ccccc1F | active: 6.31 µM | –
CCN(CCCNC(=O)CNC(=O)c1nn(-c2ccc(OC)cc2)c(=O)c2ccccc12)c1cccc(C)c1 | – | inactive: 2.63%
O=C(c1ccc(COc2ccccc2Cl)o1)N1CCN(Cc2ccc3c(c2)OCO3)CC1 | inactive | –

Compound | Potency | activity change, negative = inhibition
O=S(=O)(Cc1ccccc1)NCC1CCCN(Cc2ccc(F)c(F)c2)C1 (stereo not given) | inconclusive: 100 µM [inhibitor, single point] | –
O=C(Nc1ccc(Cl)cc1)c1ccc2c(=O)n3c(nc2c1)CCCCC3 | inconclusive: 22.4 µM [inhibitor, partial curve, poor fit] | –
Fc1ccc(-c2cc(-c3nc(-c4cccc(Cl)c4)no3)[nH]n2)cc1 | – | inactive: -7.82%
CCOC(=O)c1c(N)sc(C(=O)Nc2ccc3c(c2)OCO3)c1C | inconclusive: 89.1 µM [inhibitor, single point] | –
C/C(CC(=O)Nc1ccc2ccccc2c1)=N\NC(=O)c1cnccn1 | – | inactive: 3.11%
COc1ccc(NC(=O)C(=O)NCCc2ccccc2)cc1OC | inconclusive: 3.98 µM [inhibitor, single point] | –
Cc1cc(C)c2c(=O)c(C#N)coc2c1 | active: 44.7 µM | –
CN1/C(=C\C(=O)c2ccco2)C(C)(C)c2ccccc21 | – | inactive: 0.611%
NC(=O)COC(=O)c1c2c(nc3ccccc13)CCCC2 | – | inactive: 25.6%
O=C(CSc1nc2c(sc3ccccc32)c(=O)n1CCO)NCc1ccco1 | active: 44.7 µM | –
Cc1ccc(C(=O)Nc2cccc(C(F)(F)F)c2)cc1NC(=O)c1csc(-c2ccncc2)n1 | inconclusive: 0.141 µM [inhibitor, full curve, poor fit] | –
O=C(N/N=C\C=C\c1ccco1)c1cc(-c2ccc3ccccc3c2)n[nH]1 | active: 15.8 µM | –
Cc1ccc(-c2ccc(CCC(=O)O)n2-c2ccc(C)c(Cl)c2)cc1 | inconclusive: 17.8 µM [inhibitor, single point] | –
Cc1nnc(N2C(=O)c3ccc(Br)cc3C2=O)s1 | inconclusive: 100 µM [inhibitor, single point] | –
Cc1cccc2cc(CN(Cc3cccnc3)C(=S)NCCCN(C)C)c(=O)[nH]c12 | inconclusive: 63.1 µM [inhibitor, single point] | –
Cc1[nH]c(=O)[nH]c(=O)c1NC(=O)c1sc2nc3c(C)cccc3cc2c1N | inconclusive: 50.1 µM [inhibitor, partial curve] | –
CCOC(=O)C1(Cc2ccccc2C)CCCN(S(=O)(=O)CC)C1 (stereo not given) | inconclusive: 14.1 µM [inhibitor, partial curve] | –
CCOc1cc(/C=N/NC(=O)c2cccs2)cc([N+](=O)[O-])c1O | inconclusive: 31.6 µM [inhibitor, single point] | –
CCCCCCc1cc2cc(-c3nnc(-c4ccccc4OC)o3)c(=O)oc2cc1O | active: 14.1 µM | –
COc1ccc(OC)c(NC(=O)c2cc3c(Cl)nc4ccccc4c3s2)c1 | inconclusive: 89.1 µM [inhibitor, single point] | –
O=C(Nc1cccc(-c2nc3ccccc3o2)c1)c1cccnc1 | inconclusive: 39.8 µM [inhibitor, single point] | –
COC(=O)c1cccc(CN2C(=O)SC(Nc3ccccc3C)C2=O)c1 (stereo not given) | inconclusive: 28.2 µM [inhibitor, partial curve] | –
COc1ccc(-c2coc3cc(OC(=O)N4CCOCC4)ccc3c2=O)cc1 | – | inconclusive: -115% [inhibitor]
CN(C(=O)CN1C(=O)c2ccccc2S1(=O)=O)c1ccccc1C(=O)O | inconclusive: 89.1 µM [inhibitor, single point] | –

In another format: results already given.
Compound	Potency	activity change, negative = inhibition
O=C(Nc1ccc(Cl)cc1)c1ccc2c(=O)n3c(nc2c1)CCCCC3	inconclusive: 22.4 µM [inhibitor, partial curve, poor fit]	–
COc1ccc(NC(=O)C(=O)NCCc2ccccc2)cc1OC	inconclusive: 3.98 µM [inhibitor, single point]	–
NC(=O)COC(=O)c1c2c(nc3ccccc13)CCCC2	–	inactive: 25.6%
CCOC(=O)C1(Cc2ccccc2C)CCCN(S(=O)(=O)CC)C1 (stereo not given)	inconclusive: 14.1 µM [inhibitor, partial curve]	–

Carrying on:

Compound | Potency | activity change, negative = inhibition
C/C(=N\NS(=O)(=O)c1ccc(Cl)c([N+](=O)[O-])c1)c1ccc(C)o1 | inconclusive: 0.0708 µM [inhibitor, full curve, poor fit] | –
Cc1ccc(NC2CCCN(C(=O)CN3C(=O)c4ccccc4C3=O)C2)cc1C (stereo not given) | inconclusive: 2 µM [inhibitor, partial curve, poor fit] | –
Cc1ccc2nc(/C(C#N)=C/c3ccc(-c4ccc(C(=O)OC(C)C)cc4)o3)[nH]c2c1 | active: 28.2 µM | –
Cc1c(C(=O)Oc2ccc(Br)cc2)sc2ncn(Cc3ccccc3F)c(=O)c12 | – | inactive: 0.223%
CC(=O)NC(c1ccc(C)cc1)c1cc(Cl)c2cccnc2c1O (stereo not given) | inconclusive: 0.708 µM [inhibitor, full curve, poor fit] | –
CC(C)CCNC(=O)Cn1cc(S(=O)(=O)Cc2ccc(F)cc2)c2ccccc21 | inconclusive: 89.1 µM [inhibitor, single point] | –
Cc1ccc(OCc2cc(=O)n3c(-c4ccccc4)csc3n2)cc1 | active: 20 µM | –
COc1ccc(-c2nnc(CSc3nc4ccccc4c(=O)n3CC(C)C)o2)cc1OC | inconclusive: 70.8 µM [inhibitor, partial curve] | –
COC(=O)c1ccc2c(=O)n(NC(C)=O)c(=S)[nH]c2c1 | inconclusive: 89.1 µM [inhibitor, single point] | –
O=C(N/N=C/c1cccc(OCc2ccccc2)c1)c1cccs1 | inconclusive: 39.8 µM [inhibitor, partial curve, poor fit] | –
O=C(Nc1ccc(C2=NCCN2)cc1)c1ccc(C(=O)Nc2ccc(C3=NCCN3)cc2)c(Cl)c1 | active: 0.891 µM | –
COc1cc(-c2cc(-c3ccc(O)cc3)nc(N)c2C#N)ccc1O | – | inactive: 1.46%
CCOC(=O)Cn1c(S(=O)(=O)Cc2ccccc2Cl)nc(-c2ccccc2)c1-c1ccccc1 | inconclusive: 56.2 µM [inhibitor, partial curve] | –
COc1cccc2cc(-c3nc4ccc(C)cc4[nH]3)c(=O)oc12 | inconclusive: 17.8 µM [inhibitor, partial curve, poor fit] | –
Cc1cc(OCC#N)nc(N)n1 | inconclusive: 89.1 µM [inhibitor, single point] | –
O=C(NCCCN1CCN(c2ccccc2F)CC1)c1sc2ncccc2c1-n1cccc1 | – | inactive: -0.788%
CC(=O)N1c2ccc(S(=O)(=O)NCC3CCC(C(=O)Nc4cccc(C)c4)CC3)cc2CC1C (stereo not given) | – | inactive: -2.26%
CCN(C(=O)COC(=O)c1ccc(F)c(S(=O)(=O)N2CCOCC2)c1)C1CCS(=O)(=O)C1 (stereo not given) | inconclusive: 89.1 µM [inhibitor, single point] | –
COCCNC(=S)Nc1ccc2nsnc2c1 | – | inactive: 43%
CCOc1ccc2[nH]c3c(NCCC(C)C)ncnc3c2c1 | inconclusive: 22.4 µM [inhibitor, partial curve] | –
C=CCn1c(-c2ccncc2)n[nH]c1=S | inconclusive: 0.891 µM [inhibitor, full curve] | –

Source: PubChem BioAssay AID485314 (National Center for Advancing Translational Sciences (NCATS), 2010)
